Drawing on publication PMC10425460, this text covers binding for three molecules.

The target of the assay is T1, cYFP-VAP27-1 (Arabidopsis thaliana) (UniProt Q8VZ95).
T1 sequence: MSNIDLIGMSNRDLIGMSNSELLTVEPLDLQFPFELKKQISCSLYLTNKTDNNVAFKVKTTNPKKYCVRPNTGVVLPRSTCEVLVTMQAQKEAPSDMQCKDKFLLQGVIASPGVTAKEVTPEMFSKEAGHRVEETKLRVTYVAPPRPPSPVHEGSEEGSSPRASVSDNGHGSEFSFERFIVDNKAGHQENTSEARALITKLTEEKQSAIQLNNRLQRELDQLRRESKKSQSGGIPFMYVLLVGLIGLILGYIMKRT
Kind of assay: split reporter; BiFC: nYFP fusions of Exo84 isoforms (pCL112-nYFP) and cYFP fusions of VAP27-1/-3 (pCL113-cYFP) transiently co-expressed in N. benthamiana leaf cells; YFP fluorescence by confocal microscopy.

No constants are given. Whether binding was seen depends on the method and setting. Binding seen in cells or lysates may run through a third protein. Some binding calls cover weakened binding; strength is not graded here. Sequences can lack the tags named with a protein.

B1: nYFP-fused Exo84b (BiFC construct) (protein, UniProt Q9LTB0 1-752)
chain: MAAKTARSKATPTKENGVRVEEGLSLFKSDKFDADAYVQSKCSINEKDIKQLCSYLLDLKRASAEEMRRSVYANYPAFIRTSKEISDLEGELSSIRNLLSTQATLIHGLADGVNIDDDKVSDESLANGLLNFEDNGLSDLEKWATEFPDHLDALLAERRVDEALAAFDEGEILVSQANEKHTLSSSVLSSLQFAIAERKQKLADQLAKAACQPSTRGGELRSAIAALKRLGDGPRAHTVLLDAHFQRYQYNMQSLRPSSTSYGGAYTAALSQLVFSAISQASSDSLGIFGKEPAYSSELVTWATKQTEAFSLLVKRHALASSAAAGGLRAAAECAQIALGHCSLLEARGLSLCPVLLKHFKPIVEQALEANLKRIEENTAAMAAADDWVLTSPPAGSRHASTAFQNKLTSSAHRFNLMVQDFFEDVGPLLSMQLGSKALEGLFRVFNSYVDVLVRALPGSIEEEDPNFESSCNKIVQMAETEANQLALLANASLLADELLPRAAMKLSLDQTGQRTDDLRRPLDRQNRNPEQREWKRRLLSTVDKLKDAFCRQHALDLIFTEEGDSHLSADMYVNIDENGEDVDFFPSLIFQELFAKLNRMASLAADMFVGRERFAISLLMRLTETVILWLSGDQSFWDDIEEGPRPLGPLGLRQLYLDMKFVICFASQGRYLSRNLHRGTNEIISKALAAFTATGIDPYSELPEDDWFNDICVDAMERLSGKTKGNNGDVHSPTASVSAQSVSSARSHGSY
As to B1, the binding result is reported as “no binding”.

B2: nYFP-Exo84c (protein, UniProt Q9SY60 1-769)
chain: MESSEEDDEYPFIESITPQSKIDSVHQSLTEKGIRKLCCELMDLKDAVENMCGDMRTKYLAFLRISEEAVEMEHELVELRKHISSQGILVQDLMAGVCREMDDWNRLPGDVHDAEVEEDPLPNEVTDPKSEFLEKIDLLLAEHKVDEALEAMDAEERSSPDLKGSVEMSSYKSAFMERKAVLEDQLLRIAKQPSICVAELKHALIGLIRLGKGPSAHQLLLKFYATSLRRRIEAFLPSCLTCPNTFPATLSKLVFSNISVATKESAAMFGDDDNPAYSNKVVQWAEREVEYLVRLVKENASPSETASALRAASICLQDCLNYCKVLEPQGLFLSKLFLVLFRPYVEEVLELNFRRARRVIFDLNETDEGLESPSDFVTILSEFAIASDTMMTDCSIRFMQIVQDILEQLTHLVVLHFGESVLTRILQLYDKYIDFLIKALPGHSDEDGLPELQDNTVLARAETDSEQLALLGAAFTILDELLPRSLVKVWKLQIENGGGEGENSAALNSSAAPELKEWKRHMVQAFDKLRNYFCLQFVLSFIYSREGLTRLDALIYLTETPDDLHLPSLPFQALFSKLQQLAIIAGDVLLGKEKLQKILLARLTETVIIWLSNEQEFWSAFEDESNPLQPSGLQQLILDMNFTVEIARFAGYPFKVVQNHASVVINRAINIFSERGINPQSSLPKTEWFTEAAKSAINRLLMGSEDASEPEEYECEEEEEDDHHIVLPEMDDDSDSEDTSSLSTVDSFESFASASMADLESPSFTDSES
For the molecule B2, the binding entry is “binds”.

B3: nYFP-fused Exo84a (BiFC construct) (protein, UniProt F4I4B6 1-754)
chain: MEARERGSMSSSIGNSAELEGNLTLSDRLKVFKGSTFDPDAYVTSKCQRMNEKETRHLSSYLVELKKASAEEMRKSVYANYAAFIRTSKEISALEGQLLSMRNLLSAQAALVHGLADGVHISSLCADDADDLRDEDLYDMDNKQLSNIENWVVEFFDRLEVLLAEKRVEESMAALEEGRRVAVEAHEKRTLSPTTLLSLNNAIKEKRQELADQLAEAISQPSTRGGELRSAVLSLKKLGDGSRAHTLLLRSYERRLQANIQSLRASNTSYGVAFAAALSQLVFSTIAQAASDSQAVVGEDPAYTSELVTWAVKQAESFALLLKRHTLASSAAAGSLRVTAECVQLCASHCSSLESRGLALSPVLLKHFRPGVEQALTGNLKRIEQSSAALAASDDWSLSYTPTGSRASSTTPTAPHLKLSISAQRFNSMVQEFLEDAGPLDEALQLDGIALDGVLQVFNSYVDLLINALPGSAENEENPVHRIVKVAETESQQTALLVNALLLADELIPRSASRILPQGTSQSTPRRGSSDRQNRPEQREWKKKLQRSVDRLRDSFCRQHALELIFTEEGEVRLSSEIYILMDETTEEPEWFPSPIFQELFAKLTRIAMIVSDMFVGRERFATILLMRLTETVILWISDDQSFWEEMETGDKPLGPLGLQQFYLDMEFVMIFASQGRYLSRNLHQVIKNIIARAVEAVSATGLDPYSTLPEEEWFAEVAQIAIKMLMGKGNFGGHGERDVTSPSVSSAKSYTSN
Regarding B3, the binding entry was “no binding”.
